Our source for the binding values is PMC5005407.

Sequences of proteins named here, by UniProt entry; tags and fusion partners are left off.
UniProt Q8BGB7: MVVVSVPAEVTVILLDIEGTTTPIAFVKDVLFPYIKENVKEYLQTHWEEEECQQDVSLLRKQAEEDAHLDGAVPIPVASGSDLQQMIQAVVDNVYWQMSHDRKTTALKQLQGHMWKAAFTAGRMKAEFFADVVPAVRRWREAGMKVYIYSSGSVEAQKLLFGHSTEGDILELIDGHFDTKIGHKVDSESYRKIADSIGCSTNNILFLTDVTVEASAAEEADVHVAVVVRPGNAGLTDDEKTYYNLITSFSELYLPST

This assay has as its target Enolase-phosphatase 1 (mouse (endogenous in bEND3)) (UniProt Q8BGB7). The experiment in a line: co-IP; bEND3 whole cell lysates (RIPA buffer, 0.5 mg protein) of control cultures or cells after 6 h OGD; pre-cleared with normal IgG; anti-ENOPH1 overnight at 4°C, protein A/G Plus-Agarose; immunoblot with anti-ADI1.

No constants are given. Whether binding was seen depends on the method and setting. In cells and extracts the contact can be indirect. Some results given as binding are weak or reduced against the parent protein; the word gives no strength.

B1: aci-reductone dioxygenase 1 (protein, UniProt Q99JT9 1-179)
chain: MVQAWYMDESTADPRKPHRAQPDRPVSLEQLRTLGVLYWKLDADKYENDPELEKIRKMRNYSWMDIITICKDTLPNYEEKIKMFFEEHLHLDEEIRYILEGSGYFDVRDKEDKWIRISMEKGDMITLPAGIYHRFTLDEKNYVKAMRLFVGEPVWTPYNRPADHFDARVQYMSFLEGTA
For B1, the binding entry is “binds”.
